In US7662780B2, “Administering hypocretin to obese individuals” (The Regents of the University of California, priority 2003, dated 2010):

Assays:
[1] = Hcrt-1 level by solid-phase RIA in normal human
[2] = Hcrt-1 level by solid-phase RIA in narcoleptic dog

## hypocretin-1 (QPLPDCCRQKTCSCRLYELLHGAGNHAAGILTL; Orexin-A; UniProt O43612 34-66, looked up) [Hcrt-1, hypocretin neuropeptide derived from prepro-hypocretin; human orexin-A is reported as a 33 residue peptide of 3562 Da]
[1]; Blood serum
  Mean level: 10 fmol/mL
[1]; Cerebrospinal fluid
  Mean level: 62 fmol/mL
[2]; Blood serum
  Mean level: 11 fmol/mL
[2]; Cerebrospinal fluid
  Mean level: 53 fmol/mL
